{"source": "patent US9345682B2", "about": "“Inhibition of STAT3 signal transduction for human cancer therapy” (University of South Florida, priority 1999, dated 2016)", "tested_on": "8226 cells", "experiment": "Fas-mediated apoptosis (Annexin V, flow cytometry) in 8226 cells", "type": "cell-based, human", "conditions": "500 ng/ml CH-11 or 100 ng/ml Fas ligand", "protocol": "For surface detection of the Fas receptor, 10^6 cells are suspended in […] PBS with 2.5 mg/ml mouse IgM (Sigma) and […] UB2 antibody (MBL) or IgG1, isotype control serum (Dako). Following 30 min incubation at room temperature, cells are washed with PBS, and incubated in the dark for 30 min with goat anti-mouse Ig-FITC. Fluorescence is measured on a FACScan flow cytometer and analyzed using CellQuest software (Becton Dickinson). For cell cycle analysis, 10^6 cells are fixed in ice-cold ethanol for a minimum of 2 h, washed with PBS, and stained with 5 mg/ml propidium iodide (PI) and […] at 37° C. for 30 min prior to analysis by flow cytometry. Sensitivity to Fas-mediated apoptosis is determined by exposing cells to 500 ng/ml agonistic antibody (CH-11, MBL) or 100 ng/ml Fas ligand (Alexis) for 18-24 h. Apoptosis is measured by staining with Annexin V-FITC (Clontech) and flow cytometry analysis. Fas-specific death is calculated as (% Annexin V positive cells in the CH-11 treated population)−(% Annexin V positive cells in the IgM control population). Programmed cell death in cells transfected with the bicistronic green fluorescent protein vectors (pIRES-EGFP or pIRES-Stat3b) is analyzed after staining with Annexin V-PE (Pharmingen) by two color flow cytometry analysis. […]", "note": "Some entries share one result that the patent states for a list of compounds.", "data": [{"substance": "Fas ligand: Fas ligand (Alexis)", "values": [{"measurement": "apoptosis", "result": "40-65%"}]}]}
